PubChem BioAssay AID1259254 | NCATS, 2017
Purpose: 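Finding genes that stop cells copying their DNA twice in one cycle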 (primary screen). Cell system: human HCT116 colorectal cancer cells. Reagents: single siRNA against human genes. Duration: 3 days. Detection: 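Imaged Hoechst DNA stain sorts each cell into a cycle phase by DNA amount; per plate, G2 fraction set to 0% for non-targeting and 100% for GMNN siRNA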. Direction: G2 robust z-score: higher = more G2 cells, more excess DNA replication. Rule for the call: 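An siRNA counts as active if its G2 robust z-score lies at least 5 MADs above the screen median; here such calls match roughly 38% of GMNN control or more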.
The deposit covers about 59,000 reagents; shown is an unselected part. About 1,550 of them (2.6%) count as active. 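G2 share is only a proxy for re-replication; each gene was hit by three separate siRNAs, and active genes were retested.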 Unmarked entries are inactive. The numbers tell different reagents against one gene apart. Not all columns of the deposit are shown. Not stated in the record: the amount of reagent.

target | siRNA no. | G2 robust z-score
ZDHHC8BP | 1 | 1.06
ZDHHC8BP | 2 | -0.233
ZDHHC8BP | 3 | -0.891
THRAP3 | 1 | -1.14
THRAP3 | 2 | -0.999
THRAP3 | 3 | -0.434
EFCC1 | 1 | 1.02
EFCC1 | 2 | 2.58
EFCC1 | 3 | 7.1 (active)
EFCC1 | 4 | -0.747
EFCC1 | 5 | -0.656
EFCC1 | 6 | -0.534
RPL36AP31 | 1 | -0.0722
RPL36AP31 | 2 | 0.313
RPL36AP31 | 3 | -1.09
CHRNA1 | 1 | 4.46
CHRNA1 | 2 | -0.39
CHRNA1 | 3 | 0.288
OLIG2 | 1 | -0.132
OLIG2 | 2 | -0.189
OLIG2 | 3 | -0.644
SCCPDH | 1 | 0.138
SCCPDH | 2 | -0.259
SCCPDH | 3 | 1.55
CCL8 | 1 | 1.02
CCL8 | 2 | -0.374
CCL8 | 3 | -1.01
MAPK15 | 1 | -0.666
MAPK15 | 2 | -1.27
MAPK15 | 3 | -1.54
ARL6IP5 | 1 | -0.642
ARL6IP5 | 2 | -0.614
ARL6IP5 | 3 | 0.317
RACK1 | 1 | -0.0208
RACK1 | 2 | -0.869
RACK1 | 3 | 0.782
ZNF793 | 1 | 1
ZNF793 | 2 | 1.6
ZNF793 | 3 | -0.503
TCTN1 | 1 | -0.483
TCTN1 | 2 | 3.05
TCTN1 | 3 | 0.235
PDXDC2P-NPIPB14P | 1 | -0.081
PDXDC2P-NPIPB14P | 2 | 0.865
PDXDC2P-NPIPB14P | 3 | 1.79
NDUFB9 | 1 | 0.0418
NDUFB9 | 2 | -0.645
NDUFB9 | 3 | -0.844
CCDC121 | 1 | 0.0765
CCDC121 | 2 | 0.927
CCDC121 | 3 | -1.02
UBR1 | 1 | 0.462
UBR1 | 2 | -0.0575
UBR1 | 3 | 3.91
TARBP1 | 1 | 2.01
TARBP1 | 2 | -0.0498
TARBP1 | 3 | -1.25
ATP5F1C | 1 | 1.91
ATP5F1C | 2 | -1.09
ATP5F1C | 3 | 4.02
DGAT2L6 | 1 | -0.0888
DGAT2L6 | 2 | 1.01
DGAT2L6 | 3 | 5.92 (active)
ASIC4 | 1 | -0.445
ASIC4 | 2 | 5.8 (active)
ASIC4 | 3 | 0.319
SEC22A | 1 | -0.441
SEC22A | 2 | 0.622
SEC22A | 3 | -0.3
LRRC28 | 1 | 0.535
LRRC28 | 2 | 1.39
LRRC28 | 3 | -0.462
RCC1L | 1 | 1.63
RCC1L | 2 | -0.348
RCC1L | 3 | 0.483
RCC1L | 4 | 0.307
RCC1L | 5 | -0.713
RCC1L | 6 | -0.647
L3MBTL3 | 1 | -1.26
L3MBTL3 | 2 | -0.0668
L3MBTL3 | 3 | -0.216
SLC4A11 | 1 | -0.179
SLC4A11 | 2 | -0.0494
SLC4A11 | 3 | 0.966
JUND | 1 | -1.25
JUND | 2 | 2.14
JUND | 3 | -0.424
